The assay deals with writhing response in mice. In words: Writhing response in mice (acetic acid, acetylcholine, kaolin). In kind it is in vivo. From the text:
The antinociceptive actions of compound MV 8612 and MV 8608 were investigated in different models of nociception in mice as reported previously (Vaz et al., 1996, J. Pharmacol. Exp. Ther. 278:304–312).
(In general: An intraperitoneal irritant provokes the stretching counted in writhing tests.)

The values below come from patent publication US7109175B1, “Specific steady-state R-type CA2+ channel blockers and use thereof” (Universite de Sherbrooke, priority 2000, dated 2006).

As to `CN1CC[C@]23c4c5ccc(O)c4O[C@H]2[C@@H](O)C=C[C@H]3[C@H]1C5` [MORPHINE, morphine, reference compound], under “MV 8612 4.2 to 42 nmol/site, morphine 0.26 to 13 nmol/site”, the “acetic acid-induced writhes, i.c.v.” value is listed as “dose-related antinociception”. Further, the “ID50 ACETIC ACID” value (i.p., mice, acetic acid-induced writhes) was 1.3 (1.0–1.6) μmol/kg.
